The supplement of paper PMC4604168 (melanoma cell lines)
The other results are listed elsewhere or left out. Single values are uncertain, as repeats are few or missing.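 Cells were imaged in 1,536-well plates, and nuclei stained with an antibody against cleaved PARP were counted against all DNA-stained nuclei to give the apoptosis fraction. Screening doses were chosen to leave most cells alive, and resting and induced cleaved-PARP levels differ strongly between cell lines.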

Experiments:
Assay in all cases: cleaved PARP positive nuclei fraction relative to DMSO control; melanoma cells; higher = more apoptosis
Conditions in all cases: library dose: low library concentration; 72 h
501Mel = system: 501Mel
A101D = system: A101D
A2058 = system: A2058
A375 = system: A375
C32 = system: C32
CBRC008 = system: CBRC008 (line from a melanoma biopsy)
CBRC014 = system: CBRC014 (line from a melanoma biopsy)
CBRC016 = system: CBRC016 (line from a melanoma biopsy)
CBRC017 = system: CBRC017 (line from a melanoma biopsy)
CBRC034 = system: CBRC034 (line from a melanoma biopsy)
COLO792 = system: COLO792
COLO800 = system: COLO800
COLO829 = system: COLO829
G361 = system: G361
IPC-298 = system: IPC-298
IST-MEL1 = system: IST-MEL1
LB2518-MEL = system: LB2518-MEL
LOXIMVI = system: LOXIMVI
MEL-HO = system: MEL-HO

Structure (SMILES)	cleaved PARP positive nuclei fraction (501Mel) [%]	cleaved PARP positive nuclei fraction (A101D) [%]	cleaved PARP positive nuclei fraction (A2058) [%]	cleaved PARP positive nuclei fraction (A375) [%]	cleaved PARP positive nuclei fraction (C32) [%]	cleaved PARP positive nuclei fraction (CBRC008) [%]	cleaved PARP positive nuclei fraction (CBRC014) [%]	cleaved PARP positive nuclei fraction (CBRC016) [%]	cleaved PARP positive nuclei fraction (CBRC017) [%]	cleaved PARP positive nuclei fraction (CBRC034) [%]	cleaved PARP positive nuclei fraction (COLO792) [%]	cleaved PARP positive nuclei fraction (COLO800) [%]	cleaved PARP positive nuclei fraction (COLO829) [%]	cleaved PARP positive nuclei fraction (G361) [%]	cleaved PARP positive nuclei fraction (IPC-298) [%]	cleaved PARP positive nuclei fraction (IST-MEL1) [%]	cleaved PARP positive nuclei fraction (LB2518-MEL) [%]	cleaved PARP positive nuclei fraction (LOXIMVI) [%]	cleaved PARP positive nuclei fraction (MEL-HO) [%]
CC(=O)O[C@@]12CO[C@@H]1C[C@H](O)[C@@]1(C)C(=O)[C@H](O)C3=C(C)[C@@H](OC(=O)[C@H](O)[C@@H](NC(=O)OC(C)(C)C)c4ccccc4)C[C@@](O)([C@@H](OC(=O)c4ccccc4)[C@H]21)C3(C)C [Docetaxel] + Cn1c(Nc2ccc(C(F)(F)F)cc2)nc2cc(Oc3ccnc(-c4ncc(C(F)(F)F)[nH]4)c3)ccc21 [CHIR265] (first compound 0.0001 µM, partner dose 0.08 µM)	2280	211	2840	2140	284	307	229	126	219	122	699	238	175	600	446	57.8	310	73.7	76.8
CS(=O)(=O)c1ccc(C(=O)Nc2ccc(Cl)c(-c3ccccn3)c2)c(Cl)c1 [vismodegib] + OCc1c[nH]c2ccccc12 [Indole-3-carbinol] (first compound 1 µM, partner dose 0.8 µM)	251	103	114	55.9	69.4	166	73.9	109	82.3	103	86.7	89.9	57.3	145	90.4	64.6	119	84.3	96.9
CCN(CC)CCNC(=O)c1c(C)[nH]c(/C=C2\C(=O)Nc3ccc(F)cc32)c1C [sunitinib] + CC(=O)O[C@@]12CO[C@@H]1C[C@H](O)[C@@]1(C)C(=O)[C@H](O)C3=C(C)[C@@H](OC(=O)[C@H](O)[C@@H](NC(=O)OC(C)(C)C)c4ccccc4)C[C@@](O)([C@@H](OC(=O)c4ccccc4)[C@H]21)C3(C)C [Docetaxel] (first compound 0.4 µM, partner dose 0.0001 µM)	238	191	3100	2400	71.9	469	142	119	193	180	271	320	219	482	196	137	172	187	186
NC(=O)c1ccc(N(C(N)=O)c2c(F)cccc2F)nc1-c1ccc(F)cc1F + CCCCCCCCc1ccc(CCC(N)(CO)CO)cc1 [fingolimod] (first compound 0.4 µM, partner dose 2 µM)	259	157	79.7	468	160	56.1	110	80.9	249	138	162	116	66	281	114	68.6	109	107	128
CC1(C)CCC(c2ccc(Cl)cc2)=C(CN2CCN(c3ccc(C(=O)NS(=O)(=O)c4ccc(N[C@H](CCN5CCOCC5)CSc5ccccc5)c(S(=O)(=O)C(F)(F)F)c4)cc3)CC2)C1 + Cn1c(Nc2ccc(C(F)(F)F)cc2)nc2cc(Oc3ccnc(-c4ncc(C(F)(F)F)[nH]4)c3)ccc21 [CHIR265] (first compound 0.4 µM, partner dose 0.08 µM)	347	347	368	922	344	248	1590	842	560	154	2510	173	103	515	96.4	81.8	2970	804	166
Cn1cnc2c(F)c(Nc3ccc(Br)cc3Cl)c(C(=O)NOCCO)cc21 [selumetinib] + NC1(c2ccc(-c3nc4ccn5c(=O)[nH]nc5c4cc3-c3ccccc3)cc2)CCC1 [MK2206] (first compound 0.015 µM, partner dose 0.4 µM)	4070	116	187	267	185	173	97.2	94.8	179	187	205	137	136	246	740	76.8	599	157	37.8
COc1ccc(C2=N[C@@H](c3ccc(Cl)cc3)[C@@H](c3ccc(Cl)cc3)N2C(=O)N2CCNC(=O)C2)c(OC(C)C)c1 [Nutlin-3] + C#Cc1cccc(Nc2ncnc3cc(OCCOC)c(OCCOC)cc23)c1 [erlotinib] (first compound 0.1 µM, partner dose 0.8 µM)	80.2	58.1	104	186	92	35.3	100	125	129	102	94.3	115	79.9	90	91.9	247	325	86.3	46.2
CC1(C)CCC(c2ccc(Cl)cc2)=C(CN2CCN(c3ccc(C(=O)NS(=O)(=O)c4ccc(N[C@H](CCN5CCOCC5)CSc5ccccc5)c(S(=O)(=O)C(F)(F)F)c4)cc3)CC2)C1 + CNC(=O)c1cc(Oc2ccc(NC(=O)Nc3ccc(Cl)c(C(F)(F)F)c3)cc2)ccn1 [sorafenib] (first compound 0.4 µM, partner dose 0.4 µM)	72.8	93.7	151	195	1830	365	691	336	357	158	180	23.7	71.9	164	352	58.6	119	108	87.8
NC(=O)c1ccc(N(C(N)=O)c2c(F)cccc2F)nc1-c1ccc(F)cc1F + Cn1nnc2c(C(N)=O)ncn2c1=O [temozolomide] (first compound 0.4 µM, partner dose 2 µM)	77.7	50.1	166	137	77.5	42.2	89.7	351	91.9	32.7	109	117	162	131	85.1	146	112	33.9	267
CCCCCCCCc1ccc(CCC(N)(CO)CO)cc1 [fingolimod] + C[C@]1(c2nc3c(C(N)=O)cccc3[nH]2)CCCN1 [Veliparib] (first compound 2 µM, partner dose 1.4 µM)	265	105	132	766	89.1	48.4	109	113	104	39	55.8	107	139	84.2	84.1	272	122	124	23.3
CN(c1ncccc1CNc1nc(Nc2ccc3c(c2)CC(=O)N3)ncc1C(F)(F)F)S(C)(=O)=O + C[C@]1(c2nc3c(C(N)=O)cccc3[nH]2)CCCN1 [Veliparib] (first compound 0.08 µM, partner dose 1.4 µM)	79	156	212	120	90	107	116	129	105	92.4	158	147	113	62.1	40.3	33.1	105	120	146
CCN(CC)CCNC(=O)c1c(C)[nH]c(/C=C2\C(=O)Nc3ccc(F)cc32)c1C [sunitinib] + Clc1ccc(Nc2nnc(Cc3ccncc3)c3ccccc23)cc1 [vatalanib] (first compound 0.4 µM, partner dose 2 µM)	425	60.5	114	257	92.6	233	74.7	35.8	85.5	53.7	158	112	97.3	110	45.2	142	111	120	86.3
CC(=O)O[C@@]12CO[C@@H]1C[C@H](O)[C@@]1(C)C(=O)[C@H](O)C3=C(C)[C@@H](OC(=O)[C@H](O)[C@@H](NC(=O)OC(C)(C)C)c4ccccc4)C[C@@](O)([C@@H](OC(=O)c4ccccc4)[C@H]21)C3(C)C [Docetaxel] + O=C(O)[C@@H]1[O][Sb](=[O])([O][Sb]2(=[O])[O][C@H]([C@H](O)CO)[C@H](O)[C@H](C(=O)O)[O]2)[O][C@H]([C@H](O)CO)[C@@H]1O [stibogluconate] (first compound 0.0001 µM, partner dose 2 µM)	275	137	4190	1670	178	414	137	226	233	154	464	401	286	487	67.1	99.9	158	144	181
C[C@]1(O)C[C@@H](c2nc(-c3ccc4ccc(-c5ccccc5)nc4c3)c3c(N)nccn32)C1 + NC1(c2ccc(-c3nc4ccn5c(=O)[nH]nc5c4cc3-c3ccccc3)cc2)CCC1 [MK2206] (first compound 0.4 µM, partner dose 0.4 µM)	95.4	190	68	106	78.6	130	93	96.6	126	168	109	84.3	78.2	48.2	37.8	68.1	300	127	105
CC(=O)O[C@@]12CO[C@@H]1C[C@H](O)[C@@]1(C)C(=O)[C@H](O)C3=C(C)[C@@H](OC(=O)[C@H](O)[C@@H](NC(=O)OC(C)(C)C)c4ccccc4)C[C@@](O)([C@@H](OC(=O)c4ccccc4)[C@H]21)C3(C)C [Docetaxel] + Nc1nc(F)nc2c1ncn2[C@@H]1O[C@H](CO)[C@@H](O)[C@@H]1O [fludarabine] (first compound 0.0001 µM, partner dose 0.2 µM)	11200	354	8690	5550	279	198	190	417	274	107	531	287	275	1100	215	389	327	302	630
NC(=O)c1ccc(N(C(N)=O)c2c(F)cccc2F)nc1-c1ccc(F)cc1F + C=CCNC1=C2C[C@@H](C)C[C@H](OC)[C@H](O)[C@@H](C)/C=C(\C)[C@H](OC(N)=O)[C@@H](OC)/C=C\C=C(/C)C(=O)NC(=CC1=O)C2=O [Tanespimycin] (first compound 0.4 µM, partner dose 0.002 µM)	47.7	102	155	135	88.6	57.8	119	66.5	113	76.8	59.6	83.7	78.6	130	42.6	209	104	31.5	107

Nothing new here: entries from further up.
Structure (SMILES)	cleaved PARP positive nuclei fraction (501Mel) [%]	cleaved PARP positive nuclei fraction (A101D) [%]	cleaved PARP positive nuclei fraction (A2058) [%]	cleaved PARP positive nuclei fraction (A375) [%]	cleaved PARP positive nuclei fraction (C32) [%]	cleaved PARP positive nuclei fraction (CBRC008) [%]	cleaved PARP positive nuclei fraction (CBRC014) [%]	cleaved PARP positive nuclei fraction (CBRC016) [%]	cleaved PARP positive nuclei fraction (CBRC017) [%]	cleaved PARP positive nuclei fraction (CBRC034) [%]	cleaved PARP positive nuclei fraction (COLO792) [%]	cleaved PARP positive nuclei fraction (COLO800) [%]	cleaved PARP positive nuclei fraction (COLO829) [%]	cleaved PARP positive nuclei fraction (G361) [%]	cleaved PARP positive nuclei fraction (IPC-298) [%]	cleaved PARP positive nuclei fraction (IST-MEL1) [%]	cleaved PARP positive nuclei fraction (LB2518-MEL) [%]	cleaved PARP positive nuclei fraction (LOXIMVI) [%]	cleaved PARP positive nuclei fraction (MEL-HO) [%]
NC(=O)c1ccc(N(C(N)=O)c2c(F)cccc2F)nc1-c1ccc(F)cc1F + Cn1nnc2c(C(N)=O)ncn2c1=O [temozolomide] (first compound 0.4 µM, partner dose 2 µM)	77.7	50.1	166	137	77.5	42.2	89.7	351	91.9	32.7	109	117	162	131	85.1	146	112	33.9	267
CCCCCCCCc1ccc(CCC(N)(CO)CO)cc1 [fingolimod] + C[C@]1(c2nc3c(C(N)=O)cccc3[nH]2)CCCN1 [Veliparib] (first compound 2 µM, partner dose 1.4 µM)	265	105	132	766	89.1	48.4	109	113	104	39	55.8	107	139	84.2	84.1	272	122	124	23.3
CN(c1ncccc1CNc1nc(Nc2ccc3c(c2)CC(=O)N3)ncc1C(F)(F)F)S(C)(=O)=O + C[C@]1(c2nc3c(C(N)=O)cccc3[nH]2)CCCN1 [Veliparib] (first compound 0.08 µM, partner dose 1.4 µM)	79	156	212	120	90	107	116	129	105	92.4	158	147	113	62.1	40.3	33.1	105	120	146
CCN(CC)CCNC(=O)c1c(C)[nH]c(/C=C2\C(=O)Nc3ccc(F)cc32)c1C [sunitinib] + Clc1ccc(Nc2nnc(Cc3ccncc3)c3ccccc23)cc1 [vatalanib] (first compound 0.4 µM, partner dose 2 µM)	425	60.5	114	257	92.6	233	74.7	35.8	85.5	53.7	158	112	97.3	110	45.2	142	111	120	86.3
